PubChem BioAssay AID743454, Peter MacCallum Cancer Centre, 2014
Aim: 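Search for knock-downs that restore vorinostat killing in resistant colon cancer cells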 (primary screen). Cells: human HCT116-VR colon cancer cells, selected for vorinostat resistance. Reagents: siRNA pool against human genes, 40 nM siRNA pool. Timing: vorinostat for 24 h, read-out about 72 h after transfection. Treatment: vorinostat at 2.5 µM final. Read-out: 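Two measures, CellTiter-Fluor viability and luminescent caspase 3/7 activity, each as fold change against same-plate mock wells, mean of duplicates, then screen-wide robust z-score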. Direction: viability robust z-score: higher = more viable cells than screen typical; caspase robust z-score: higher = more caspase 3/7 activity than screen typical. Call rule: 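Hits are knock-downs in viability class RV1/RV2 or caspase class CA1/CA2, excluding ones that killed cells in the no-drug cell-count arm; hits then retested with single siRNAs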.
The deposit covers about 18,000 reagents; below is a random part of them. 450 of all reagents (2.5%) count as active. 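Single biological run; no consistent viability z cut-off exists, so the class columns, not z-scores, define the calls.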 No sequences are given here.

no.	target gene	viability hit class	caspase hit class	viability robust z-score	caspase robust z-score	call
1	DND1 (GeneID 373863)	no change	no change	0.54	0.16	inactive
2	CD58 (GeneID 965)	no change	no change	1.19	0.14	inactive
3	CHRNA1 (GeneID 1134)	no change	no change	-0.74	4.04	inactive
4	THAP12 (GeneID 5612)	no change	no change	1.06	-0.8	inactive
5	SLC1A2 (GeneID 6506)	no change	no change	0.25	-1.18	inactive
6	PAG1 (GeneID 55824)	no change	no change	-0.11	-0.15	inactive
7	KRTAP26-1 (GeneID 388818)	no change	no change	0.99	0.62	inactive
8	SMAD1 (GeneID 4086)	no change	no change	-0.01	-0.57	inactive
9	GATA2 (GeneID 2624)	no change	no change	-3.16	1.66	inactive
10	TEFM (GeneID 79736)	no change	no change	-0.3	-0.67	inactive
11	PCDHB7 (GeneID 56129)	no change	no change	0.78	-0.14	inactive
12	NAP1L1 (GeneID 4673)	no change	no change	0.82	0.12	inactive
13	SLC25A3 (GeneID 5250)	no change	no change	0.46	1.11	inactive
14	OGDHL (GeneID 55753)	no change	no change	-1.56	1.08	inactive
15	CORT (GeneID 1325)	no change	no change	-2.25	-0.52	inactive
16	TTC36 (GeneID 143941)	no change	no change	0.01	1.31	inactive
17	UBE3D (GeneID 90025)	no change	no change	-0.37	-0.57	inactive
18	NAT16 (GeneID 375607)	no change	no change	-0.04	0.07	inactive
19	CSN2 (GeneID 1447)	no change	no change	-0.26	-0.34	inactive
20	ATF2 (GeneID 1386)	no change	no change	-0.54	-0.64	inactive
21	MPND (GeneID 84954)	no change	no change	-0.99	0.56	inactive
22	MAGT1 (GeneID 84061)	no change	no change	-0.56	-0.74	inactive
23	GTF3C6 (GeneID 112495)	no change	no change	0.64	-0.03	inactive
24	NOB1 (GeneID 28987)	no change	no change	-0.4	4.79	inactive
25	HCFC1 (GeneID 3054)	no change	no change	-1.28	-0.3	inactive
26	GAGE5 (GeneID 2577)	no change	no change	0.22	-0.78	inactive
27	RB1CC1 (GeneID 9821)	no change	no change	-4.46	2.26	inactive
28	ITGAX (GeneID 3687)	no change	no change	0.03	0.22	inactive
29	MAPK8 (GeneID 5599)	no change	no change	0.7	-0.41	inactive
30	YPEL4 (GeneID 219539)	no change	no change	-0.26	-0.8	inactive
31	CEBPD (GeneID 1052)	no change	no change	-2.9	-0.91	inactive
32	DDX18 (GeneID 8886)	RV2 (reduced viability)	no change	-3.34	0.92	active
33	CD247 (GeneID 919)	no change	no change	0.32	-0.94	inactive
34	UNC119 (GeneID 9094)	no change	no change	2.6	-0.4	inactive
35	CERKL (GeneID 375298)	no change	no change	0.54	-0.2	inactive
36	ZNF680 (GeneID 340252)	no change	no change	-0.25	2.74	inactive
37	RNF151 (GeneID 146310)	no change	no change	-1.23	3.62	inactive
38	TFR2 (GeneID 7036)	no change	no change	-1.07	0.92	inactive
39	SLC38A7 (GeneID 55238)	no change	no change	0.48	0.65	inactive
40	SPATA9 (GeneID 83890)	no change	no change	-0.36	-1.08	inactive
41	MAEL (GeneID 84944)	no change	no change	-0.58	1.64	inactive
42	NDUFB6 (GeneID 4712)	no change	no change	-0.65	0.82	inactive
43	SOX11 (GeneID 6664)	no change	no change	0.38	-0.74	inactive
44	IL37 (GeneID 27178)	no change	no change	-0.22	2.22	inactive
45	H2BC7 (GeneID 8343)	no change	no change	-0.18	5.08	inactive
46	RNF123 (GeneID 63891)	no change	no change	-0.07	0.74	inactive
47	SSB (GeneID 6741)	no change	no change	0.77	-0.21	inactive
48	SP3 (GeneID 6670)	no change	no change	0.24	-0.76	inactive
49	IFNL1 (GeneID 282618)	no change	no change	-0.79	1.41	inactive
50	TEX35 (GeneID 84066)	no change	no change	0.28	0.18	inactive
51	CCL3L3 (GeneID 414062)	no change	no change	-0.11	2.13	inactive
52	BIRC5 (GeneID 332)	no change	no change	-2.6	0.06	inactive
53	MARS2 (GeneID 92935)	no change	no change	1.05	-0.56	inactive
54	NFKBIB (GeneID 4793)	no change	no change	0.35	1.54	inactive
55	SUOX (GeneID 6821)	no change	no change	-1.65	0.96	inactive
56	JPT2 (GeneID 90861)	no change	no change	0.44	-0.5	inactive
57	TRIM51BP (GeneID 399937)	no change	no change	-1.31	1.84	inactive

Reagents above with an active call (1):
target gene	viability hit class	caspase hit class	viability robust z-score	caspase robust z-score	call
DDX18 (GeneID 8886)	RV2 (reduced viability)	no change	-3.34	0.92	active
